Test results reported in article doi:10.1101/2020.11.05.369959.
Results are given in words; binding and its absence hold for the method and conditions named. In cells and extracts the contact can be indirect. These calls come from enrichment with a bait or labelling near it, and not all partners need be listed.

By UniProt entry, the sequences of proteins in these tests, tags left out.
UniProt Q9C0K0: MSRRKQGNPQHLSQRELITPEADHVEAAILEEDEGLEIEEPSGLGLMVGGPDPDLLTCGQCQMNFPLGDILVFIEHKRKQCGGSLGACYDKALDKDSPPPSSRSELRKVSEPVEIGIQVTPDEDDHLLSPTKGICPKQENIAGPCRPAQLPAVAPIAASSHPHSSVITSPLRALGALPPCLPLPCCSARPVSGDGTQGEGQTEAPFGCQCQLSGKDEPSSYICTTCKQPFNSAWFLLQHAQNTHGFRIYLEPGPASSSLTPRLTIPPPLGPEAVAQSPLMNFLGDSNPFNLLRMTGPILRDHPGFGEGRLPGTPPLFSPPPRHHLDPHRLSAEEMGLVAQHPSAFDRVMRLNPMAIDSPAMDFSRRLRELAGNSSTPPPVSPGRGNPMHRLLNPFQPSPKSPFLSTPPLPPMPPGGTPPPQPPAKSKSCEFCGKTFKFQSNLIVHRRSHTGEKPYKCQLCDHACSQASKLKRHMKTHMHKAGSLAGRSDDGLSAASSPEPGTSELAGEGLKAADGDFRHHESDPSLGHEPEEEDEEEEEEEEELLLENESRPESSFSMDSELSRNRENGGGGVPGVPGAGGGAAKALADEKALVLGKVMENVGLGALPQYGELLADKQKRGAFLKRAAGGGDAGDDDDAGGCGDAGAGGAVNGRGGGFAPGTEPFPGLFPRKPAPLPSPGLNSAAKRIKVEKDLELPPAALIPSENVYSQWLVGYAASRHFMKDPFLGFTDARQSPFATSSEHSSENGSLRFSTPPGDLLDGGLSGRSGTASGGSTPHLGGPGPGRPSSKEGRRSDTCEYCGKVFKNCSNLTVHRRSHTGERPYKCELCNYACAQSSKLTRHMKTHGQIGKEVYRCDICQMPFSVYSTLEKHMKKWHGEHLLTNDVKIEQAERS
UniProt Q12834: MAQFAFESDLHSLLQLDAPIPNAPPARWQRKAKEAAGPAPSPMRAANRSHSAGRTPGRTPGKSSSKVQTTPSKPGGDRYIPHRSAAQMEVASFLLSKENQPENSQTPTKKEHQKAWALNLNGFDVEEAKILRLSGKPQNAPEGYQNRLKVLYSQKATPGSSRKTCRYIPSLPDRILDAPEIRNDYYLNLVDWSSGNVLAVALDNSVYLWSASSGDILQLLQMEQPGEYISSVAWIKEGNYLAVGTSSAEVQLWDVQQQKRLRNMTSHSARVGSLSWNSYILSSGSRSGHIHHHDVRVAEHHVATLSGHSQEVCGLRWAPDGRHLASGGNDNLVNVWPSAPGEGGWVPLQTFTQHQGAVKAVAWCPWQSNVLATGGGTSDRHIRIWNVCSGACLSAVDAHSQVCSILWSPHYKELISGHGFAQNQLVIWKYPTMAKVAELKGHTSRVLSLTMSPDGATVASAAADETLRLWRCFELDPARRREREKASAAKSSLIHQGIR
UniProt P50750: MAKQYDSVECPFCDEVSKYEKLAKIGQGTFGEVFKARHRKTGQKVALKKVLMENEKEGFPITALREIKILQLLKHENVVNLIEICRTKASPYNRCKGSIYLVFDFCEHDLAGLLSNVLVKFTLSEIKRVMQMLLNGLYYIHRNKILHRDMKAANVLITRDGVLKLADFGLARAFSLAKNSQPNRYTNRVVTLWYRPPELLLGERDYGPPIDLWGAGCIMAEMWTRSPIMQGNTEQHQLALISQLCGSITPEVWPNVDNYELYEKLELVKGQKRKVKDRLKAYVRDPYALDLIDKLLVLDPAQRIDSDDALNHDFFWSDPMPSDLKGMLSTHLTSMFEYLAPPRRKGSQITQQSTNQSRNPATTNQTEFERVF
UniProt Q01844: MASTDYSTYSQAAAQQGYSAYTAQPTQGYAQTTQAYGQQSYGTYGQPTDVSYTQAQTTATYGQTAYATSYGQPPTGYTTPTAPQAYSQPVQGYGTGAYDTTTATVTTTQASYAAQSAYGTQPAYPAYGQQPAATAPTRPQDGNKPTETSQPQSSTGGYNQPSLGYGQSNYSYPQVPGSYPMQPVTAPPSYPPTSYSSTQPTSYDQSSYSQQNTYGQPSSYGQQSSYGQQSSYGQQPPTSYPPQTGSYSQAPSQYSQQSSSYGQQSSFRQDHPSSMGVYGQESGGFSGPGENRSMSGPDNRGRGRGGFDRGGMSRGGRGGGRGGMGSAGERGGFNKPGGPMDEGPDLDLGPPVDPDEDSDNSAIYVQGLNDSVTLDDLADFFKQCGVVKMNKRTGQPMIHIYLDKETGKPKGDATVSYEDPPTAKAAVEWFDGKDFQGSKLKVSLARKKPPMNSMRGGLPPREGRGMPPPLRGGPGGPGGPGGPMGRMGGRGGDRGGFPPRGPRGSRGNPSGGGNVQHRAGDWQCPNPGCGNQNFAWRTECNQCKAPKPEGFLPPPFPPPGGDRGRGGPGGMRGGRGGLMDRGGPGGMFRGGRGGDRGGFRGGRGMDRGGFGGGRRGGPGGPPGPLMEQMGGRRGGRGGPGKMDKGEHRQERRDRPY
UniProt Q03164: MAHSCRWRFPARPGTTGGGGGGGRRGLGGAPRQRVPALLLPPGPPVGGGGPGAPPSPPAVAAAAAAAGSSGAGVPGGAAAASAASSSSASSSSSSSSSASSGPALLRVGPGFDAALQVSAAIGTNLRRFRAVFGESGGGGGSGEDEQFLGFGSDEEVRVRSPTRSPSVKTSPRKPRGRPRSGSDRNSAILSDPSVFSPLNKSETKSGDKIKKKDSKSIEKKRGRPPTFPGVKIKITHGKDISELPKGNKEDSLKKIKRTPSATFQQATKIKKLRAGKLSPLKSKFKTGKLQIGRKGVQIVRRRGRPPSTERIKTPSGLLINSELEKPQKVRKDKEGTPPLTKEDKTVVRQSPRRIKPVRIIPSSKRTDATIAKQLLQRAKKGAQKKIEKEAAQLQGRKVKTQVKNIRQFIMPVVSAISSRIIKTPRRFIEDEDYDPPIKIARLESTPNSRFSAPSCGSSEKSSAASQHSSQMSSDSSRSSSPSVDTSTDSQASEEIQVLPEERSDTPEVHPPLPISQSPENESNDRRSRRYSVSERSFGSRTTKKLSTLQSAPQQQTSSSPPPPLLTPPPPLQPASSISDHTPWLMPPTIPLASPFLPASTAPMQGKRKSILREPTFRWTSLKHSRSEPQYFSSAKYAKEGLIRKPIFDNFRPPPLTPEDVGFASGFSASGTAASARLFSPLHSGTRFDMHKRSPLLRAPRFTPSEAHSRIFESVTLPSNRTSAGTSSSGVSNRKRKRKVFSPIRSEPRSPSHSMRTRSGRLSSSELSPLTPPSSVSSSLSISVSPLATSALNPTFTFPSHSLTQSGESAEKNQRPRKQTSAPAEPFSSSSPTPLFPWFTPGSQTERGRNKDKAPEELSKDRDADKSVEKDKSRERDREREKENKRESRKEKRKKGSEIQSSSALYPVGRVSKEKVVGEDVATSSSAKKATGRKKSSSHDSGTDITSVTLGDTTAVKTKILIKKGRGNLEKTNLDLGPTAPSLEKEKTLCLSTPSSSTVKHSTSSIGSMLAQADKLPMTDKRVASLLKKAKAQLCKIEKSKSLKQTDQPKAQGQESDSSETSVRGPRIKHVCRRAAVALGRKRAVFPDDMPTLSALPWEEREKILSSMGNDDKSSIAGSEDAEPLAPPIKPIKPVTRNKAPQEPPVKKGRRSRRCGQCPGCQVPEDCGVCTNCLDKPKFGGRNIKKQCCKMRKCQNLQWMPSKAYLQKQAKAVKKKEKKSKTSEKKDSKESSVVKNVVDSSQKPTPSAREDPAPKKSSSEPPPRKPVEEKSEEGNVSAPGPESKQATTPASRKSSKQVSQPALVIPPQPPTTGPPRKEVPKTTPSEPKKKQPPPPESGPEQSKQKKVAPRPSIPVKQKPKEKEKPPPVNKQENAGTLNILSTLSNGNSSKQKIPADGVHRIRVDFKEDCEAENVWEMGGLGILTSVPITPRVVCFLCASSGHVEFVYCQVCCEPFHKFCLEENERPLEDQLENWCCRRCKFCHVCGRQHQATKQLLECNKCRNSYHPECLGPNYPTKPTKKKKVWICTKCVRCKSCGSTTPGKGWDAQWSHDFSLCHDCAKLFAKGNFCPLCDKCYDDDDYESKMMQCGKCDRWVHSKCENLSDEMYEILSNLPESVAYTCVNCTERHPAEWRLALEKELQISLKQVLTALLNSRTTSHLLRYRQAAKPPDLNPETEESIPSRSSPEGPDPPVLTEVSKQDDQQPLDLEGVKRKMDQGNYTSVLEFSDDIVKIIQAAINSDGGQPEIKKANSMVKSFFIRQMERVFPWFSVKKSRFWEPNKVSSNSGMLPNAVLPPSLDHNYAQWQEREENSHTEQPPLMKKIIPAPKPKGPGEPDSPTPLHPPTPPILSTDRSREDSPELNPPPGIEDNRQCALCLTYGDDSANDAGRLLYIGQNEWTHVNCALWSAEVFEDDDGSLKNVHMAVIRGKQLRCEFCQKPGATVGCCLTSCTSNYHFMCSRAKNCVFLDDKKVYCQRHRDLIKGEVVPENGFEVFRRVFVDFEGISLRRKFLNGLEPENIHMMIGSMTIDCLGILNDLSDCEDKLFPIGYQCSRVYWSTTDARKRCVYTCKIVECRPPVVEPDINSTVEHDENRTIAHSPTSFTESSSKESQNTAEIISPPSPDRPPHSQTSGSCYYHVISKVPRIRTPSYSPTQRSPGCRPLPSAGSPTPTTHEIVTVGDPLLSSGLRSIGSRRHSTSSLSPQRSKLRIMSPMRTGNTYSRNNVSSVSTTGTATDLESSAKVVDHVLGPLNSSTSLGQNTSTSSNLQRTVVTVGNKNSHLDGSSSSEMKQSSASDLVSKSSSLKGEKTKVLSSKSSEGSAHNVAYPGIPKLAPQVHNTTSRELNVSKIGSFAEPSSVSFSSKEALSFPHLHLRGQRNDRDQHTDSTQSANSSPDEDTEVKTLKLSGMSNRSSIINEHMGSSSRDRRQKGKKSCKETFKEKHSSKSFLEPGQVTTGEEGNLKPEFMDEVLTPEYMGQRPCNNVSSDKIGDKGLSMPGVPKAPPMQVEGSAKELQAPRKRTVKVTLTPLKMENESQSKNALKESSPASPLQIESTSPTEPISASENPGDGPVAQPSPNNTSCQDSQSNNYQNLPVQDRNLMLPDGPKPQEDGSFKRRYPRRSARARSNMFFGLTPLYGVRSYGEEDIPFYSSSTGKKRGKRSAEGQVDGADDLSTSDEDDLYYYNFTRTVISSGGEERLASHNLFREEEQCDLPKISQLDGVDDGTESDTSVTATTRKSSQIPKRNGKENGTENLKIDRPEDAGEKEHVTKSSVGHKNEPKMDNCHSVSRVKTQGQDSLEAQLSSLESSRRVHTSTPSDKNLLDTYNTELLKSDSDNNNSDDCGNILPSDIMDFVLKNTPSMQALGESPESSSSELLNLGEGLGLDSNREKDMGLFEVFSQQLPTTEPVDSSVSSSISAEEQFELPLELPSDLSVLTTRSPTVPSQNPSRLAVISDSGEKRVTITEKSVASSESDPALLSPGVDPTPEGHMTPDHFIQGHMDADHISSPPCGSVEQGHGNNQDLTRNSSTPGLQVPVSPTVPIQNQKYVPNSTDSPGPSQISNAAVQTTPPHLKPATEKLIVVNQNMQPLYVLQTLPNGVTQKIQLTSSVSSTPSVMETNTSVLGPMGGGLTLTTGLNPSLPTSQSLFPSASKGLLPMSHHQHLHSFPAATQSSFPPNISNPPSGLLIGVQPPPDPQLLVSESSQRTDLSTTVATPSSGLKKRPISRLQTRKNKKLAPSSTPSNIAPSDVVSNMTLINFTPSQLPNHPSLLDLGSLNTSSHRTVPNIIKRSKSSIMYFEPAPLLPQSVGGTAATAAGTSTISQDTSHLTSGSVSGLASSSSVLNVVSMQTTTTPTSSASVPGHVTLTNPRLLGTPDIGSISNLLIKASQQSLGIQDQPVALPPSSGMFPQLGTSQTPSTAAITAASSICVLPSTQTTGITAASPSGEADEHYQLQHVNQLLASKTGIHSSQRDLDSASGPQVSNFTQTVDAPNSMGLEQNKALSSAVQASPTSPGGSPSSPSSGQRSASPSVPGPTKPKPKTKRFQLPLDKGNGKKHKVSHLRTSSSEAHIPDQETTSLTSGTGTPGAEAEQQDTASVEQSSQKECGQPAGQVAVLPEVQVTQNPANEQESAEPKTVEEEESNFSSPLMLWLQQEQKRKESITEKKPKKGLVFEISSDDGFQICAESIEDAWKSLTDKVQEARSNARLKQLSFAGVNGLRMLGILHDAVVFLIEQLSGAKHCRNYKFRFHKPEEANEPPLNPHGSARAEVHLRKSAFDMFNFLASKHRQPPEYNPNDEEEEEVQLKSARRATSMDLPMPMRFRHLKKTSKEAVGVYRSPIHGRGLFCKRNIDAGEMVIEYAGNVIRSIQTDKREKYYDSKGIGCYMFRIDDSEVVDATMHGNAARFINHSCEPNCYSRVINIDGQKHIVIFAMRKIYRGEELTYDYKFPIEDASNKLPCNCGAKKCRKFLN
UniProt P63208: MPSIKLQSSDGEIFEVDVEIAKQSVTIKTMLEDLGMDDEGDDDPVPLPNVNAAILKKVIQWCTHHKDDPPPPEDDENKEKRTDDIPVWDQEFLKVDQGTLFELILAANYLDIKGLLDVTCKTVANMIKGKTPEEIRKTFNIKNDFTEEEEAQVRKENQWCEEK

Target: Flag-BCL11b (B-cell lymphoma/leukemia 11B) (UniProt Q9C0K0)
Test: affinity purification with mass spectrometry

Ago2 (from UniProt Q9UKV8 1-859)
binding: binds

BRCA2 (from UniProt P51587 1-3418)
binding: binds

CDC7 (from UniProt O00311 1-574)
binding: binds

CDC20 (from UniProt Q12834 1-499)
binding: binds

CDK6 (from UniProt Q00534 1-326)
binding: binds

CDK9 (from UniProt P50750 1-372)
binding: binds

DCAF1 (from UniProt Q9Y4B6 1-1507)
binding: binds

EWSR1 (from UniProt Q01844 1-656)
binding: binds

FUS (from UniProt P35637 1-526)
binding: binds

KMT2A (from UniProt Q03164 1-3969)
binding: binds

PARP1 (from UniProt P09874 1-1014)
binding: binds

SKP1 (from UniProt P63208 1-163)
binding: binds

SMN1 (from UniProt Q16637 1-294)
binding: binds

TDP-43 (from UniProt Q13148 1-414)
binding: binds
